Source: PMC13284301
Results are given in words; binding and its absence hold for the method and conditions named. Binding seen in cells or lysates may run through a third protein. Some entries that bind do so weakly or less than the wild type. Sequences can lack the tags named with a protein.

Protein sequences, listed by entry. Tags and fused reporters are not part of them.
UniProt P41377: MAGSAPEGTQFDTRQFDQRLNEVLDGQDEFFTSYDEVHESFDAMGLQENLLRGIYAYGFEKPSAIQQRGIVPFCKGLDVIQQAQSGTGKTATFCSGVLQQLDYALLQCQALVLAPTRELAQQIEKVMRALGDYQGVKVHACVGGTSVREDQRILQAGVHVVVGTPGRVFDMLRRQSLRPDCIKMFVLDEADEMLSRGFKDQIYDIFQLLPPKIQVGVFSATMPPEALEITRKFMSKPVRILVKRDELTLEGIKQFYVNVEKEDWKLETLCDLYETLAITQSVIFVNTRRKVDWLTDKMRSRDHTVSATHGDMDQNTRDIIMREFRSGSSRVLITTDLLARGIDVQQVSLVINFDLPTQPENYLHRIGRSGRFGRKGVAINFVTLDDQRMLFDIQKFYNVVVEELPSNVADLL
UniProt P41376: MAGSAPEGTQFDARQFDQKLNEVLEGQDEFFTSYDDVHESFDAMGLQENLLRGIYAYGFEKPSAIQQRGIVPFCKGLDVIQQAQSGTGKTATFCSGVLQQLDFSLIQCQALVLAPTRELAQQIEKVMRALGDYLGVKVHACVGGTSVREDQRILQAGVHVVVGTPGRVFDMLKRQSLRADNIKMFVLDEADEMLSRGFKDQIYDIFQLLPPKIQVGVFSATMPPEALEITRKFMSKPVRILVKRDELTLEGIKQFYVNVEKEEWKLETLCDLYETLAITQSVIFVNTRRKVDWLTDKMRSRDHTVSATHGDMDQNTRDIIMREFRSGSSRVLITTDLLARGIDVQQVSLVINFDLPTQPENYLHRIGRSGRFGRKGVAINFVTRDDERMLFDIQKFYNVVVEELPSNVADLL

How the values were obtained:
Assay in all cases: split reporter; BiFC in transfected Arabidopsis mesophyll protoplasts, nYFP on SMG7 and cYFP on the partner, imaged by confocal microscopy after 16 h
[1] = molecular target: T1, nYFP-SMG7^Δ702-1059 (Arabidopsis thaliana) (UniProt A9QM73)
T1 sequence: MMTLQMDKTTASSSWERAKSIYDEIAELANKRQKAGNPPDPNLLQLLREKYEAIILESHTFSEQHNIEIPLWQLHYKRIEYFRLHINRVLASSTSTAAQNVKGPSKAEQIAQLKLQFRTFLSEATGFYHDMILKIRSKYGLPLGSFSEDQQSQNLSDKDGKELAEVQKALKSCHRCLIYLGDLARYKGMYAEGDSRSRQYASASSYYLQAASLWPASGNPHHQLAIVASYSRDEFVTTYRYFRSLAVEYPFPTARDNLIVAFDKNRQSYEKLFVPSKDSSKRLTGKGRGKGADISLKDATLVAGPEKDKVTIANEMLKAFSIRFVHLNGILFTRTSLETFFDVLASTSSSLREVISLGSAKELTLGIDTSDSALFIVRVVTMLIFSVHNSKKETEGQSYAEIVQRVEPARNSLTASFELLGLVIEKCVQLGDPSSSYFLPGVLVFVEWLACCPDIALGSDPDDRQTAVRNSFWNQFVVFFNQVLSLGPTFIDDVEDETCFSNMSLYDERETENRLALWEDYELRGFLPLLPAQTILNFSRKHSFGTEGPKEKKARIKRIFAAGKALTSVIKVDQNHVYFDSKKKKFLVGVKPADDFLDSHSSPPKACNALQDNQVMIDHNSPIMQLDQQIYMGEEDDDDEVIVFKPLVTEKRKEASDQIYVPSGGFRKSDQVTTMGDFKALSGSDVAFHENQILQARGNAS

[2] = molecular target: T2, nYFP-SMG7^Δ715-885 (Arabidopsis thaliana) (UniProt A9QM73)
T2 sequence: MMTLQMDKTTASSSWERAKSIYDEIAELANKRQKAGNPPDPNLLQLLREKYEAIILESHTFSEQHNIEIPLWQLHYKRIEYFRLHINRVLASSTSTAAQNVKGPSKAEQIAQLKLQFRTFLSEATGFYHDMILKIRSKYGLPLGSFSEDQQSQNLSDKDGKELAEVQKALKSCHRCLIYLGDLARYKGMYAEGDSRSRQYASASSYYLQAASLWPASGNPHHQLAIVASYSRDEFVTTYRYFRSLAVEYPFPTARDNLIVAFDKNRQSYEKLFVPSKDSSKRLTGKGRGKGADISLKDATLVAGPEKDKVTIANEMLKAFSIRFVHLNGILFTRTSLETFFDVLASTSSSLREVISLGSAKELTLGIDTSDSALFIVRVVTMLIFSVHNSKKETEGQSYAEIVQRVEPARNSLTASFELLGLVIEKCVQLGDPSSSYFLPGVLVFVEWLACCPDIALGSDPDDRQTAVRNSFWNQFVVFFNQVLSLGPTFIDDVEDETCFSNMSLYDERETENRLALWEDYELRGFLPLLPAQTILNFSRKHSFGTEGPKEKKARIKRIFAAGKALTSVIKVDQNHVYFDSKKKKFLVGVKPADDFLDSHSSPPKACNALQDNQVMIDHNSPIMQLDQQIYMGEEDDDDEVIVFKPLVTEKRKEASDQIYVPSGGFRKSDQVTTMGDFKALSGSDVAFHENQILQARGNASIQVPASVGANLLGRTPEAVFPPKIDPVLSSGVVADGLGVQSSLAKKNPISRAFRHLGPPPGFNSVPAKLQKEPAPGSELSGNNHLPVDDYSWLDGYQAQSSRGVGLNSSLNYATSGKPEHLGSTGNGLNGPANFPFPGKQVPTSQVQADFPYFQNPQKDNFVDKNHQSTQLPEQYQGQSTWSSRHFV

[3] = molecular target: T3, nYFP-SMG7^Δ917-1010 (Arabidopsis thaliana) (UniProt A9QM73)
T3 sequence: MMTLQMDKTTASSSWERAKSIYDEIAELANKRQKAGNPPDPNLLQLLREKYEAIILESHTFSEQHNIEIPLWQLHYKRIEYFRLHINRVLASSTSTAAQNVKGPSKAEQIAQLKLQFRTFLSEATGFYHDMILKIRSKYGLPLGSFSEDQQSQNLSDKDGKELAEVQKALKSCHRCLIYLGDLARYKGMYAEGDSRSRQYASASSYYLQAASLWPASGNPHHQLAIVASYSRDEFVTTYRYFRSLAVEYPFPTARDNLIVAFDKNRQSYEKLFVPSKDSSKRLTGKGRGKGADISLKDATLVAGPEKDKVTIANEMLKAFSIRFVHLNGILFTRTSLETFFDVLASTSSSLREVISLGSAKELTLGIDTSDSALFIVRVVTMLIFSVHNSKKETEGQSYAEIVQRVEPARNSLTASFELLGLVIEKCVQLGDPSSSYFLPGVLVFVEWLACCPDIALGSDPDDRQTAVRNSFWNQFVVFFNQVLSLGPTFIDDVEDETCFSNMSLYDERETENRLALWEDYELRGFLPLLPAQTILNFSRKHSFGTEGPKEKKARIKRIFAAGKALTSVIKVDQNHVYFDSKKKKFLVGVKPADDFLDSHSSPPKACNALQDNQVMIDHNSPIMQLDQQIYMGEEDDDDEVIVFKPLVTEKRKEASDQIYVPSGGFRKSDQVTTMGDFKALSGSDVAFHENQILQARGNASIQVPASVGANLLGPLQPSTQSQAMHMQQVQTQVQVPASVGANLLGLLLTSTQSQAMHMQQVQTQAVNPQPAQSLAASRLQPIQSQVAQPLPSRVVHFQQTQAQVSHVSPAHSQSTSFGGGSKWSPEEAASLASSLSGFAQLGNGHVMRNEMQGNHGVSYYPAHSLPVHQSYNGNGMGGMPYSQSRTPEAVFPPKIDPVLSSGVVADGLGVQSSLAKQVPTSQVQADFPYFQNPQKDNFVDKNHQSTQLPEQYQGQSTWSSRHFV

binding [1]	binding [2]	binding [3]	Substance
binds	binds	binds	eIF4A2-cYFP (from UniProt P41377 1-412)
binds	binds	binds	eIF4A1-cYFP (from UniProt P41376 1-412)
